This is an account of results in PubChem BioAssay AID248 (DTP/NCI, 2004).

The test system of this test is L1210 leukemia ip in BDF1 mice, survival T/C. Description: NCI In Vivo Anticancer Drug Screen. Data for tumor model L1210 Leukemia (intraperitoneal) in B6D2F1 (BDF1) mice. Conditions: T/C endpoint: mean survival time, higher T/C = longer survival.
The mark [1] stands for this setting: dose: 200.0 mg/kg/injection, schedule: Q01DX001 (ip), vehicle: saline.
The mark [2] stands for this setting: dose: 400.0 mg/kg/injection, schedule: Q01DX001 (ip), vehicle: saline.
The mark [3] stands for this setting: dose: 100.0 mg/kg/injection, schedule: Q01DX001 (ip), vehicle: saline.

The list does not hold the whole screen: it gathers tests that were run many times, whatever their T/C, doses with no T/C, and many T/C values between a quarter and a half above the control. Further doses and runs are listed elsewhere. T/C: endpoint of the treated group in % of that of the vehicle group. Some doses have a count of surviving animals in place of a T/C: the source files T/C as zero there, which appears to mark a toxic dose or a test without result, not a measured value. Some survivor counts are full or nearly so, which does not show that the dose was tolerated: the source hardly ever lists a survival T/C far under the control, and the zero likely stands for such cases as well. Survivors were counted at the toxicity check, usually on the fifth day, unless a day is given; later deaths do not show. Schedules are NCI's codes, read here as Q, the interval in days (D) or hours (H), X, the number of doses. Some schedules carry Z or #; the key to these is not given. Some entries hold several experiments; their values stand side by side, smallest first. Where survival is the endpoint, this PubChem deposit counts one and a half times the control or more as active, and values a quarter to a half above the control carry no call in these data; other NCI protocols may use other cut-offs.

For the compound `CC(C)=C(c1ccc(C(C)(C)C)cc1)c1ccc(C(C)(C)C)cc1`, the survivor count (dose: 400.0 mg/kg/injection, schedule: Q01DX009 (ip), vehicle: saline with Tween-80) is listed as 6 of 6.

On to `[N-]=[N+]=NC1=CC(=O)C(c2ccccc2)=CC1=O`, for which the survivor count (dose: 400.0 mg/kg/injection, schedule: Q04DX002 (ip), vehicle: saline with Tween-80) is listed as 0 of 3.

Take `Oc1ccc(Br)cc1/C=N/c1nc(-c2ccccc2)cs1.Oc1ccc(Br)cc1/C=N/c1nc(-c2ccccc2)cs1.[Zn]`: the survivor count is 3 of 3 under setting [1] and 3 of 3 under setting [2].

For `CCOCC[P+](c1ccccc1)(c1ccccc1)c1ccccc1`, the survivor count (dose: 20.0 mg/kg/injection, schedule: Q01DX015 (ip), vehicle: saline) is reported as 5 of 6; the survivor count (dose: 40.0 mg/kg/injection, schedule: Q01DX015 (ip), vehicle: saline) was 0 of 6; the survivor count (dose: 50.0 mg/kg/injection, schedule: Q01DX001 (ip), vehicle: saline) was 0 of 4; the survivor count (dose: 80.0 mg/kg/injection, schedule: Q01DX001 (ip), vehicle: saline) is 2 of 4; the survivor count (dose: 80.0 mg/kg/injection, schedule: Q01DX015 (ip), vehicle: saline) was 0 of 6; the survivor count under setting [3] is 0 of 4. The survivor count is reported as 0 of 4 under setting [1] and 0 of 4 under setting [2].

`CCCC/C=C/C#N`: where the note is “dose: 300.0 mg/kg/injection, schedule: Q01DX009 (ip), vehicle: saline”, the survivor count was 0 of 6.

As for `CC(=O)Nc1ccc(/C=N/NC(N)=S)cc1`, the survivor count (dose: 400.0 mg/kg/injection, schedule: Q04DX013 (ip), vehicle: carboxymethylcellulose (CMC)) was 6 of 6.

For `O=C(N/N=C/c1cc(Cl)ccc1[N+](=O)[O-])c1cccc2ccccc12`, the survivor count under setting [3] is given as 4 of 4.

As for `NCc1ccccc1F`, the survivor count (dose: 400.0 mg/kg/injection, schedule: Q01DX009 (ip), vehicle: saline) was 5 of 6.

`NC(CSC(c1ccccc1)(c1ccccc1)c1ccc(Cl)cc1)C(=O)O` (stereo unspecified): the T/C (dose: 3.13 mg/kg/injection, schedule: Q01DX009 (ip), vehicle: acetone) was 139 % of control; the T/C (dose: 6.3 mg/kg/injection, schedule: Q01DX009 (ip), vehicle: other) is 147 % of control; the T/C (dose: 25.0 mg/kg/injection, schedule: Q01DX009 (ip), vehicle: other) is 143 % of control. The survivor count (dose: 25.0 mg/kg/injection, schedule: Q01DX009 (ip), vehicle: acetone) is given as 6 of 6; the survivor count (dose: 50.0 mg/kg/injection, schedule: Q01DX009 (ip), vehicle: acetone) is on record as 4 of 6; the survivor count (dose: 50.0 mg/kg/injection, schedule: Q01DX009 (ip), vehicle: other) is given as 4 of 6; the survivor count (dose: 100.0 mg/kg/injection, schedule: Q01DX009 (ip), vehicle: other) was 4 of 6.

As for `C[n+]1cn(CCCl)c2ccccc21`, the survivor count is, setting by setting: (dose: 100.0 mg/kg/injection, schedule: Q01DX Z (ip), vehicle: saline) 2 of 6; (dose: 300.0 mg/kg/injection, schedule: Q01DX Z (ip), vehicle: saline) 0 of 6.

With `CN(C)N=Nc1ccc(S(=O)(=O)Nc2ncccn2)cc1`, the T/C runs as follows: (dose: 200.0 mg/kg/injection, schedule: Q04DX002 (ip), vehicle: saline with Tween-80) 125 % of control; (dose: 264.0 mg/kg/injection, schedule: Q04DX003 (ip), vehicle: saline) 145 % of control; (dose: 600.0 mg/kg/injection, schedule: Q04DX003 (ip), vehicle: saline with Tween-80) 132 % of control.

Take `Brc1cc(Br)c2[nH]c(-c3ccccc3)cc2c1`: the survivor count (dose: 50.0 mg/kg/injection, schedule: Q01DX001 (ip), vehicle: carboxymethylcellulose (CMC)) is on record as 4 of 4.

On to `Oc1ccc(O)c2[nH]c(-c3ccccc3)cc12`, for which the survivor count (dose: 25.0 mg/kg/injection, schedule: Q04DX002 (ip), vehicle: saline with Tween-80) was 0 of 3 and 0 of 4; the survivor count (dose: 50.0 mg/kg/injection, schedule: Q04DX002 (ip), vehicle: saline with Tween-80) is 0 of 3; the survivor count (dose: 100.0 mg/kg/injection, schedule: Q04DX002 (ip), vehicle: saline with Tween-80) was 0 of 3.

In the case of `O=C(NCCCl)NC1CCc2ccccc21` (stereo unspecified), the survivor count (dose: 400.0 mg/kg/injection, schedule: Q04DX003 (ip), vehicle: Klucel (hydroxypropylcellulose) (HPC)) is 5 of 6.

Turning to `[N-]=[N+]=C1N=NC=C1C(N)=O`, the survivor count under setting [2] is reported as 0 of 4.

As for `CC(=O)CC(=O)Nc1ccc(C(=O)c2ccccc2)cc1`, for the setting “dose: 150.0 mg/kg/injection, schedule: Q01DX001 (ip), vehicle: acetone”, the survivor count was 6 of 6.

As for `CCNC(=O)NCc1ccc(Cl)c(Cl)c1`, the survivor count (dose: 400.0 mg/kg/injection, schedule: Q04DX002 (ip), vehicle: Klucel (hydroxypropylcellulose) (HPC)) is 1 of 3.

For `CCOC(=O)C(C(=O)OCC)c1cc(Cl)nnc1Cl`, the T/C (dose: 50.0 mg/kg/injection, schedule: Q04DX002 (ip), vehicle: saline) is 134 % of control.

For the compound `CC1(C)C[n+]2noc([O-])c2C(C)(C)C1`, the survivor count is, setting by setting: (dose: 2.3 mg/kg/injection, schedule: Q01DX009 (ip), vehicle: alcohol) 2 of 6; (dose: 3.12 mg/kg/injection, schedule: Q04DX003 (ip), vehicle: alcohol) 5 of 6; (dose: 3.5 mg/kg/injection, schedule: Q01DX009 (ip), vehicle: alcohol) 1 of 6; (dose: 5.2 mg/kg/injection, schedule: Q01DX009 (ip), vehicle: alcohol) 0 of 6; (dose: 6.25 mg/kg/injection, schedule: Q04DX003 (ip), vehicle: alcohol) 0 of 6; (dose: 12.5 mg/kg/injection, schedule: Q04DX003 (ip), vehicle: alcohol) 0 of 6. In addition, the survivor count reads like this: (dose: 25.0 mg/kg/injection, schedule: Q04DX003 (ip), vehicle: alcohol) 0 of 6; (dose: 50.0 mg/kg/injection, schedule: Q04DX003 (ip), vehicle: alcohol) 0 of 6; (dose: 100.0 mg/kg/injection, schedule: Q04DX003 (ip), vehicle: alcohol) 0 of 6; (dose: 200.0 mg/kg/injection, schedule: Q04DX003 (ip), vehicle: alcohol) 0 of 6; (dose: 400.0 mg/kg/injection, schedule: Q04DX003 (ip), vehicle: alcohol) 0 of 6.

Take `CCCCCCCCCCCCCCCCNC(=S)N/N=C/C(C)=N/NC(=S)NCCCCCCCCCCCCCCCC`: under “dose: 480.0 mg/kg/injection, schedule: Q01DX Z (ip), vehicle: carboxymethylcellulose (CMC)”, the survivor count was 4 of 6.

As for `CC(=O)Nc1nc(Cl)c([N+](=O)[O-])c(Cl)n1`, the survivor count is given as 0 of 6 (dose: 25.0 mg/kg/injection, schedule: Q01DX001 (ip), vehicle: Klucel (hydroxypropylcellulose) (HPC)) and 0 of 6 (dose: 50.0 mg/kg/injection, schedule: Q01DX001 (ip), vehicle: Klucel (hydroxypropylcellulose) (HPC)).

In the case of `COc1ccc(OC)c(NC(=S)N/N=C(\C)c2ccc(O)c(C)c2)c1`, the T/C (dose: 50.0 mg/kg/injection, schedule: Q04DX002 (ip), vehicle: Klucel (hydroxypropylcellulose) (HPC)) was 126 % of control.

As for `CN(C)c1nc(=[N+](C)C)ss1`, where the note is “dose: 400.0 mg/kg/injection, schedule: Q04DX003 (ip), vehicle: saline with Tween-80”, the survivor count is 6 of 6.

For `CN(C)CCCCc1cn(-c2ccccc2)c2ccccc12`, the survivor count runs as follows: (dose: 60.0 mg/kg/injection, schedule: Q01DX015 (ip), vehicle: saline) 0 of 6; (dose: 100.0 mg/kg/injection, schedule: Q04DX003 (ip), vehicle: saline) 2 of 6; (dose: 120.0 mg/kg/injection, schedule: Q01DX015 (ip), vehicle: saline) 0 of 6; (dose: 240.0 mg/kg/injection, schedule: Q01DX015 (ip), vehicle: saline) 0 of 6.

With `Cc1c2oc3c(C)ccc(C(=O)OCCN4CCOCC4)c3nc-2c(C(=O)OCCN2CCOCC2)c(N)c1=O`, the survivor count (dose: 400.0 mg/kg/injection, schedule: Q04DX002 (ip), vehicle: saline) is given as 0 of 3.

In the case of `O=[N+]([O-])c1ccc(Sc2ccsc2)c([N+](=O)[O-])c1`, under setting [2], the survivor count was 1 of 4.

For the compound `CCN(C(C)=O)c1ccccc1C#N`, where the note is “dose: 300.0 mg/kg/injection, schedule: Q01DX001 (ip), vehicle: saline”, the survivor count is recorded as 2 of 6.

On to `ClC1CCCCCCCCC1`, for which the survivor count under setting [1] is reported as 4 of 4.
